# Laboratory results taken from paper PMC12374808.
# Sequences of proteins named here, by UniProt entry; tags and fusion partners are left off. Residues count along the entry.
# UniProt P16070, residues 21-742: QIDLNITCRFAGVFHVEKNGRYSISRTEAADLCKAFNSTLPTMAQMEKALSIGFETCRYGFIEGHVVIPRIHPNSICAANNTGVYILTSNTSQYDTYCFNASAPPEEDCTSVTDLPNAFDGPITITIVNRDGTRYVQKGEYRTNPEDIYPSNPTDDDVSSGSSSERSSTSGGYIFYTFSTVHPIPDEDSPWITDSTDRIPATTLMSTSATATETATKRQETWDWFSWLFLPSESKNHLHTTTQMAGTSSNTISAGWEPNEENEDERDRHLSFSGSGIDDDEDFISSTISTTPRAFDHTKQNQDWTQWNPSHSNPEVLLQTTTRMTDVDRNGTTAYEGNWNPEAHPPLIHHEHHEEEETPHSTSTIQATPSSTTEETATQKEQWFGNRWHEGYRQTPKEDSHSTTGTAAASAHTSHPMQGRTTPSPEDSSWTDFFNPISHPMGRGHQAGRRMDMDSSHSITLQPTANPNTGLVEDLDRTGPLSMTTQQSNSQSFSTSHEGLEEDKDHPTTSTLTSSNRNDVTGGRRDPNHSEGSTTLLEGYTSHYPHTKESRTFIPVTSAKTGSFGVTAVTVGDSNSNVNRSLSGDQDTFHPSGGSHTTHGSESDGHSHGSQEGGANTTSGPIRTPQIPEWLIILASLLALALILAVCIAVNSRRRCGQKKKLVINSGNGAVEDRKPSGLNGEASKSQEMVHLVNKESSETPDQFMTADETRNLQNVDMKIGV
# UniProt P98066, residues 18-277: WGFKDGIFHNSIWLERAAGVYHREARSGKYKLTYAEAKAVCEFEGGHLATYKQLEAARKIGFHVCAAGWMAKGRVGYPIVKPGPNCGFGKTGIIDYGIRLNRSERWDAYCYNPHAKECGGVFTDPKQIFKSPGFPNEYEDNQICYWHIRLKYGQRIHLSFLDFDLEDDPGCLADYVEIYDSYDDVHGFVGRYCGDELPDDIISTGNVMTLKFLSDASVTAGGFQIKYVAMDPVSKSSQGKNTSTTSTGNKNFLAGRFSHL
# These are yes or no findings as the source states them, for the method shown. Binding seen in cells or lysates may run through a third protein. Some entries that bind do so weakly or less than the wild type.
# B1: TGFβR1 (receptor, UniProt P36897 34-503)
# chain: LQCFCHLCTKDNFTCVTDGLCFVSVTETTDKVIHNSMCIAEIDLIPRDRPFVCAPSSKTGSVTTTYCCNQDHCNKIELPTTVKSSPGLGPVELAAVIAGPVCFVCISLMLMVYICHNRTVIHHRVPNEEDPSLDRPFISEGTTLKDLIYDMTTSGSGSGLPLLVQRTIARTIVLQESIGKGRFGEVWRGKWRGEEVAVKIFSSREERSWFREAEIYQTVMLRHENILGFIAADNKDNGTWTQLWLVSDYHEHGSLFDYLNRYTVTVEGMIKLALSTASGLAHLHMEIVGTQGKPAIAHRDLKSKNILVKKNGTCCIADLGLAVRHDSATDTIDIAPNHRVGTKRYMAPEVLDDSINMKHFESFKRADIYAMGLVFWEIARRCSIGGIHEDYQLPYYDLVPSDPSVEEMRKVVCEQKLRPNIPNRWQSCEALRVMAKIMRECWYANGAARLTALRIKKTLSQLSQQEGIKM
# Experiments:
# [1] = biological target: CD44 (human (endogenous in A549)) (UniProt P16070); assay: co-IP; A549 cells treated with 200 ng/ml rhTSG6 for 2 hours; lysates incubated with anti-CD44 (sc-9960) or normal IgG for 16 h at 4 °C, then protein G agarose for 4 h; washed four times with lysis buffer (0.5% Triton X-100, 20 mM Tris pH 7.5); immunoblot for TSG6; only the binder purified
# [2] = biological target: CD44 (human (endogenous in A549)) (UniProt P16070); assay: co-IP; A549 cells with or without 200 ng/ml rhTSG6 for 2 hours; lysates incubated with anti-CD44 (sc-9960) or normal IgG for 16 h at 4 °C, then protein G agarose for 4 h; washed four times with lysis buffer; immunoblot for endogenous TGFβR1 and EGFR
Molecule,binding [1],binding [2]
recombinant human TSG6 (rhTSG6) (from UniProt P98066 18-277) (ligand),binds,–
EGFR (from UniProt P00533 25-1210) (receptor),–,binds
B1,–,binds
